Measured values taken from PMC7862700.
Only a part is listed here, and it is no random draw. At the low end of the ranking the order means little.

Columns and labels:
Assay in all cases: DAPPL (digital affinity profiling via proximity ligation, sequencing)
Settings in all cases: 10 mM Tris-HCl pH 7.5, 50 mM NaCl, 1 mM DTT, 4% glycerol, room temperature, 30 min; GST-TFs on glutathione beads, 16-mer random dsDNA library, 0.1% …; high values mean tight binding; double strand, one strand shown; scale: fold enrichment (6-mer frequency, TF over GST control)
ELK1 = molecular target: T1, ELK1 (UniProt P19419)
T1 sequence: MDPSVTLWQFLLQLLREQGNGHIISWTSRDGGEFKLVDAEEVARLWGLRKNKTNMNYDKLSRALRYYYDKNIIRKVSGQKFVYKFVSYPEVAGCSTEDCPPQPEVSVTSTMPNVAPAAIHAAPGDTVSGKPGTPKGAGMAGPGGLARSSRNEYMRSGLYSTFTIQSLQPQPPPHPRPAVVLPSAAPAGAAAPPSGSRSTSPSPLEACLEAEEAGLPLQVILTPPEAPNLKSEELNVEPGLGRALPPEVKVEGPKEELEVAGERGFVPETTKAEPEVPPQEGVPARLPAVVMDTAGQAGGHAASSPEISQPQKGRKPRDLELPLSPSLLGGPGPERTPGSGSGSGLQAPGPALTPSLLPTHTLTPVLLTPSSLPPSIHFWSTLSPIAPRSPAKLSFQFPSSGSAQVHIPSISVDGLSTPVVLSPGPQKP

SPIC = molecular target: T2, SPIC (UniProt Q8N5J4)
T2 sequence: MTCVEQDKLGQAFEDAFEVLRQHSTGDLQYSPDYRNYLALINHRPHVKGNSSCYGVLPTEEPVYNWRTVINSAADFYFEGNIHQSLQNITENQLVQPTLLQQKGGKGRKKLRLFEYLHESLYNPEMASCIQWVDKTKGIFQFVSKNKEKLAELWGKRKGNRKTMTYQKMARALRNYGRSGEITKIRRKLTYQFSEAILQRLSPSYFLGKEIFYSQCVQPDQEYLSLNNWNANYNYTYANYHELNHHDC

ETS2 = molecular target: T3, ETS2 (UniProt P15036)
T3 sequence: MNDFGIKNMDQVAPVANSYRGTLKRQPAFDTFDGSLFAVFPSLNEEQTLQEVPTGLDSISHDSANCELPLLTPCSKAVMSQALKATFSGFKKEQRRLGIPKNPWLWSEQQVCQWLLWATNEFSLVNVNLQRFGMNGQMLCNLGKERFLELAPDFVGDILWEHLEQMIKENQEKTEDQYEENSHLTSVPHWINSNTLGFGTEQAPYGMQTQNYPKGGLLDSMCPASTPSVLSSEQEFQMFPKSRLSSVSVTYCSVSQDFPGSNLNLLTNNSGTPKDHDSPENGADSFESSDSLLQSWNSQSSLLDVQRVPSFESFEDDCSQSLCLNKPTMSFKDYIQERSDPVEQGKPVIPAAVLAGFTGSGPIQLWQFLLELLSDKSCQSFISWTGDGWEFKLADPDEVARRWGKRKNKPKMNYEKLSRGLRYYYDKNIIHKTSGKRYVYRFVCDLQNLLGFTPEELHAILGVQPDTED

ETV3 = molecular target: T4, ETV3 (UniProt P41162-2)
T4 sequence: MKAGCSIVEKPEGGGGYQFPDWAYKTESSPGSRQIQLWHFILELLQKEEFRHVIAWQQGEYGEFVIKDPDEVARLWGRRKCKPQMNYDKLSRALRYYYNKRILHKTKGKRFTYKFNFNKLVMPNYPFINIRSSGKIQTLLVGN

ELK3 = molecular target: T5, ELK3 (UniProt P41970)
T5 sequence: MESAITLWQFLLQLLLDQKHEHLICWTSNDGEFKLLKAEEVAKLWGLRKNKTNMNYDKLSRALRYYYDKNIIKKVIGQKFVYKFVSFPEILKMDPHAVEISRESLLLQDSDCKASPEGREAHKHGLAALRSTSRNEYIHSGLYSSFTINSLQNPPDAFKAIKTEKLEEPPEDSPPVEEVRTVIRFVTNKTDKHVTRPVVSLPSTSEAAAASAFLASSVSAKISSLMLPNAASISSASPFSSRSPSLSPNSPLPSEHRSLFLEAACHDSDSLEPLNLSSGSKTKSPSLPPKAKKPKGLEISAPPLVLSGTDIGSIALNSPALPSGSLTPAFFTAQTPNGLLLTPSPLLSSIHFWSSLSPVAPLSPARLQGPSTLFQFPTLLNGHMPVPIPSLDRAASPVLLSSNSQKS

| Sequence | binding signal (ELK1) | binding signal (SPIC) | binding signal (ETS2) | binding signal (ETV3) | binding signal (ELK3) |
| --- | --- | --- | --- | --- | --- |
| GTAAAT | 1.09 | 1.09 | 1.18 |  |  |
| CCTCCT | 1.45 | 1.47 |  |  |  |
| CACCAA | 1.16 | 1.12 | 0.988 |  |  |
| CTCGGG | 0.994 | 0.816 | 0.953 | 1 |  |
| GCTAAC | 1.1 | 0.959 | 0.992 |  |  |
| GGTTCT | 1.02 | 0.996 | 0.907 |  |  |
| GTATAC | 1.3 | 1.2 | 1.32 |  |  |
| TATGAT | 1.18 | 1.29 | 1.17 |  |  |
| AGTTTA | 0.981 | 0.947 | 0.961 | 0.985 |  |
| GGGTAT | 0.946 | 0.96 | 1.02 | 0.943 |  |
| ACGCGG | 0.969 | 0.975 | 0.993 |  |  |
| CCATGG | 1.05 | 0.876 | 0.861 | 0.962 |  |
| GCGCCC | 1.1 | 1.01 | 1.05 |  |  |
| CGCACA | 1.08 | 0.951 |  |  |  |
| ATTGCA | 1.31 | 1.1 |  |  |  |
| AACTGT | 0.889 | 0.98 | 0.951 | 0.955 |  |
| CAAGCT | 0.99 | 0.918 | 0.952 |  |  |
| CCTGGC | 0.977 | 0.893 | 0.996 |  |  |
| CACAAC | 1.24 | 1.25 |  |  |  |
| GCTACT | 1.25 | 1.3 |  |  |  |
| TGAACG | 0.96 | 0.974 | 0.997 | 0.982 |  |
| TCTGAG | 0.953 | 0.936 | 1 | 0.973 |  |
| GCCTAC | 1.17 | 1.37 | 1.23 | 1.3 |  |

| Sequence | binding signal (ELK1) | binding signal (SPIC) | binding signal (ETS2) | binding signal (ETV3) | binding signal (ELK3) |
| --- | --- | --- | --- | --- | --- |
| TAACTT | 1.39 | 1.56 | 1.38 |  |  |
| TAAAGG | 1.03 | 1.11 | 0.988 |  |  |
| TATCCC | 1.65 | 1.6 |  |  |  |
| GTATGT | 0.972 | 0.919 | 0.999 | 0.952 |  |
| GTTTGT | 0.968 | 1.01 | 0.965 |  |  |
| ATTGTC | 1.07 | 0.985 | 1.17 |  |  |
| CAAAGA | 0.962 | 0.95 | 0.939 | 0.928 |  |
| CTCGCA | 1.25 | 1.43 | 1.35 |  |  |
| TTCGAC | 1.51 | 1.35 | 1.42 |  |  |
| AGTTAT | 0.938 | 0.944 | 0.919 | 0.902 |  |
| CCAGAA | 0.886 | 0.948 | 0.986 | 0.949 |  |
| GCCTGT | 0.937 | 0.997 | 0.843 |  |  |
| ACCATC | 1.14 | 1.02 |  |  |  |
| CTGTAT | 1.28 | 1.51 | 1.22 |  |  |
| TGGGTA | 0.965 | 1.03 | 0.996 | 0.909 |  |
| TGAAGA | 0.973 | 1.01 | 0.989 | 0.93 |  |
| TTCGCA | 1.36 | 1.32 | 1.18 | 1.34 |  |
| CAGAAC | 0.921 | 0.957 | 0.903 | 0.896 | 0.876 |
| ACGAAG | 0.946 | 0.99 | 0.914 | 0.915 | 0.936 |
| AGGCTA | 0.98 | 0.979 | 0.971 | 0.909 |  |
| CCAGCT | 0.945 | 0.952 | 0.987 | 1 |  |
| TAGTGT | 1.16 | 0.969 | 1.11 | 1.13 |  |
| GTTTAG | 0.829 | 0.912 | 0.821 | 0.87 | 0.875 |

| Sequence | binding signal (ELK1) | binding signal (SPIC) | binding signal (ETS2) | binding signal (ETV3) | binding signal (ELK3) |
| --- | --- | --- | --- | --- | --- |
| GAATGA | 0.988 | 0.82 | 0.943 | 0.865 |  |
| TCATCG | 0.955 | 1.05 | 0.949 | 0.928 |  |
| CCCGTA | 1.11 | 1.31 | 1.2 | 1.21 |  |
| GCCTAG | 0.962 | 0.989 | 1 | 0.987 | 0.93 |
| ATCAAG | 0.972 | 0.972 | 0.926 | 0.957 |  |
| TTCAGA | 0.931 | 0.984 | 0.984 | 0.938 | 0.971 |
| GTGTTA | 1.02 | 0.872 | 0.978 | 0.998 |  |
| CGGGCT | 0.987 | 0.934 | 1.07 | 0.959 |  |
| TAGTCA | 0.924 | 0.95 | 0.87 | 0.858 | 0.836 |
| GTGGTC | 0.852 | 0.815 | 0.919 | 0.862 | 0.957 |
| GGCTTA | 0.967 | 0.944 | 1.09 | 1.05 |  |
| AGCTCG | 0.975 | 0.994 | 1.01 | 0.946 |  |
| CGTCCA | 0.993 | 0.976 | 0.976 | 1.03 |  |
| GTGGCA | 0.959 | 1.04 | 0.958 | 1 |  |
| ACGGTA | 1.03 | 0.904 | 0.917 | 0.977 | 0.943 |
| GATAAG | 0.888 | 0.948 | 0.905 | 0.865 |  |
| GAATAG | 0.979 | 0.898 | 0.854 | 0.966 | 0.847 |
| AGCGGC | 0.956 | 0.946 | 0.919 | 0.919 |  |
| GATACC | 0.983 | 0.996 | 0.971 | 0.933 | 0.803 |
| CAAAGT | 0.989 | 0.787 | 0.977 | 0.945 |  |
| GCGCCG | 0.952 | 1.1 | 0.969 | 0.96 |  |
| GATCCA | 1.08 | 0.952 | 1.09 | 1.05 |  |

Reprinted at random: 2 records from the list, in no set order.

| Sequence | binding signal (ELK1) | binding signal (SPIC) | binding signal (ETS2) | binding signal (ETV3) | binding signal (ELK3) |
| --- | --- | --- | --- | --- | --- |
| ACGGTA | 1.03 | 0.904 | 0.917 | 0.977 | 0.943 |
| GATCCA | 1.08 | 0.952 | 1.09 | 1.05 |  |
